Measured values reported in patent US20210113482A1, “Poly (Alkyl Cyanoacrylate) Nanoparticles for Use in Treatment of Cancer” (Sintef TTO AS, priority 2018, published 2021).
Some of these results come from one statement about several compounds together.

System: MDA-MB-231, MDA-MB-468 and MCF-7 cells
Assay: In vitro cellular toxicity: MTT cell viability (72 h) and [3H]thymidine incorporation (24 h) in three breast cancer cell lines
Assay type: cell-based, human
Details: range over all cell lines; MTT 72 h and [3H]thymidine 24 h
Description: Cell lines. Three breast cancer cell lines were used in this study. The MDA-MB-231 (triple negative; Claudin low), was cultured in RPMI 1640; the MDA-MB-468 (triple negative; basal) and the MCF-7 (luminal A) cell lines were cultured in DMEM. All medium was fortified with 10% (w/v) fetal calf serum albumin (Sigma) and 100 units/ml penicillin/streptomycin (PenStrep®, Sigma). All cell lines were obtained from ATCC and were routinely tested for mycoplasma. Cells growing in 24- or 96-well plates were incubated with serial dilutions of PEBCA-CBZ, CBZ (non-encapsulated CBZ) dissolved in Tween-80 (Fluka)), and PEBCA without CBZ for 24, 48 or 72 h at 37° C. in an atmosphere of 5% CO2. The toxicity was assessed either by the commonly used MTT (3-(4,5-dimethylthiazol-2-yl)-2,5-diphenyltetrazolium bromide) cell viability assay, by measuring cell proliferation based on [^3H]thymidine incorporation, by measuring protein synthesis by incorporation of [^3H]leucine and by measuring ATP levels using CellTiter Glo®.
MTT cell viability assay. […] The absorbance was read in a plate reader (Biosys Ltd, Essex, UK) at 570 nm, and background from absorbance at 650 nm was subtracted.
Cell proliferation measured by [^3H]thymidine incorporation. […] The radioactivity was counted for 1 min in a scintillation counter (Tri-Carb 2100TR, Packard Bioscience, USA).

In the case of `CO[C@H]1C(=O)[C@]2(C)[C@@H](OC)C[C@H]3OC[C@@]3(OC(C)=O)[C@H]2[C@H](OC(=O)c2ccccc2)[C@]2(O)C[C@H](OC(=O)[C@H](O)[C@@H](NC(=O)OC(C)(C)C)c3ccccc3)C(C)=C1C2(C)C` [CBZ, cabazitaxel], the “toxicity relative to PEBCA without drug” value is reported as 130-350 fold.
